Experimental data reported in the supplement of paper PMC10849652.
The other results are listed elsewhere or left out.

By UniProt entry, the sequences of proteins in these tests, tags left out. Where a name states a change or a piece, a line headed by the entry shows the natural chain unless it says otherwise.
UniProt O95429: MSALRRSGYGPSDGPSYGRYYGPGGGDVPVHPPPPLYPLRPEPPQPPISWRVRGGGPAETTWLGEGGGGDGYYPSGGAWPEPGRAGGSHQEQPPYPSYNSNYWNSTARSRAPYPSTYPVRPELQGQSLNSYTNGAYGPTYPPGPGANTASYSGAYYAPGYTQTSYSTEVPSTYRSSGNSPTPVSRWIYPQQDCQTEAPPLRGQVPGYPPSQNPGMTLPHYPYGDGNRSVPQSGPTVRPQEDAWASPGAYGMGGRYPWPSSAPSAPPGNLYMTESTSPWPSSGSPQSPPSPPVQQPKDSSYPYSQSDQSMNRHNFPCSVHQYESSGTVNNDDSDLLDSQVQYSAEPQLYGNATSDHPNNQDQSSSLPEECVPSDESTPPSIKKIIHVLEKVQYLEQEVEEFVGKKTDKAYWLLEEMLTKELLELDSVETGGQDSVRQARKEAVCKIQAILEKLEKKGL
UniProt Q8WXE1: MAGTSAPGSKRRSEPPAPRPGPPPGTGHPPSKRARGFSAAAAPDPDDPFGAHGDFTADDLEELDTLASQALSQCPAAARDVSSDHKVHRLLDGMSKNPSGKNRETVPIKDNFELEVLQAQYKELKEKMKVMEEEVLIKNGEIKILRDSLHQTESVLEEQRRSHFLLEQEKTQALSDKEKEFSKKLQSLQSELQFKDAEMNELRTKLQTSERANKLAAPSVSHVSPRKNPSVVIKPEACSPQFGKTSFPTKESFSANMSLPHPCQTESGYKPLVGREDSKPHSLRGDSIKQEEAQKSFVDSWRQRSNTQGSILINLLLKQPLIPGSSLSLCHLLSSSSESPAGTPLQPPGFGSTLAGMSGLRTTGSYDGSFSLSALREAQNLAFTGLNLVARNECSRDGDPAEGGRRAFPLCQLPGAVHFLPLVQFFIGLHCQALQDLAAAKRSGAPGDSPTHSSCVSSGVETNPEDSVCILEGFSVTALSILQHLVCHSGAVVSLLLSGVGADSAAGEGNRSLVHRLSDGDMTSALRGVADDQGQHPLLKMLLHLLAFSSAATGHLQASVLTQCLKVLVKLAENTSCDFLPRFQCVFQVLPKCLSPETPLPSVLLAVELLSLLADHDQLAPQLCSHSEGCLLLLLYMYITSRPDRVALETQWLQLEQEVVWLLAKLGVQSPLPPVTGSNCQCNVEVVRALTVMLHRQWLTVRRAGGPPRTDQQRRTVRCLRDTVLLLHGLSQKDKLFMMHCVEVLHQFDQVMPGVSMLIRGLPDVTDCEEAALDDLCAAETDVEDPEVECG
UniProt Q99933: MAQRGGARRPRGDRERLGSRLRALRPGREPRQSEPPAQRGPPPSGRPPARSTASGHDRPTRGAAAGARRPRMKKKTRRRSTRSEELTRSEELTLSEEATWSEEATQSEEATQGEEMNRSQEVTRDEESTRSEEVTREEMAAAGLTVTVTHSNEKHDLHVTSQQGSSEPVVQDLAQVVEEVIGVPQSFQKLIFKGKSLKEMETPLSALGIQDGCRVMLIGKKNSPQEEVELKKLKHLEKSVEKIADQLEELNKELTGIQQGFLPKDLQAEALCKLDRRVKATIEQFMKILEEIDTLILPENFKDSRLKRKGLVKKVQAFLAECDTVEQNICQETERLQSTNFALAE
UniProt Q9NUP1: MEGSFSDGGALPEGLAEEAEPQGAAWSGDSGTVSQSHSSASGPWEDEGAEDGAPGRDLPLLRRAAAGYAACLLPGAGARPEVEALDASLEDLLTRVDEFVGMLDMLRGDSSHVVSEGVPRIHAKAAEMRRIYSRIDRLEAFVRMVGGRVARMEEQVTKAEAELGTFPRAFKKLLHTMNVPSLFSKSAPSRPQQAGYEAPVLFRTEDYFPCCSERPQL
UniProt Q07812, whole entry, looked up: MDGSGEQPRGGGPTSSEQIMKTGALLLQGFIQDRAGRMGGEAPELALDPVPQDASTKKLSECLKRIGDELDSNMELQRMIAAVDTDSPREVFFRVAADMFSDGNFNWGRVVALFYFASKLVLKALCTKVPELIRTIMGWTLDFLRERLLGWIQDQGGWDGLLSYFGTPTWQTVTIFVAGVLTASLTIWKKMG
UniProt P51572: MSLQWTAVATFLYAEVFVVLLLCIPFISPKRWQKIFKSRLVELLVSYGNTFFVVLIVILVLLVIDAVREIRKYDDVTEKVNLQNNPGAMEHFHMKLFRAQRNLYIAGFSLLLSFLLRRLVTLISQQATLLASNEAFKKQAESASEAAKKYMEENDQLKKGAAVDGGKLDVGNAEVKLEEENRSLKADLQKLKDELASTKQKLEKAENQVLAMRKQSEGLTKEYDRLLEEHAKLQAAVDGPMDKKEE
UniProt P53004: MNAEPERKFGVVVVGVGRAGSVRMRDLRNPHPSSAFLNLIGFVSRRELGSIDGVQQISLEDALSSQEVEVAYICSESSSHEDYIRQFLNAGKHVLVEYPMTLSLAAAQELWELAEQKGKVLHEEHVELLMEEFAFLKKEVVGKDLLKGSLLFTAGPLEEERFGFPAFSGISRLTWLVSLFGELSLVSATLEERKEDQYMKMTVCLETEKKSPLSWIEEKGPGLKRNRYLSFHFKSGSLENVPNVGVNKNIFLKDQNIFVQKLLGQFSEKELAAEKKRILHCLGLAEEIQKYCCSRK
UniProt P07738: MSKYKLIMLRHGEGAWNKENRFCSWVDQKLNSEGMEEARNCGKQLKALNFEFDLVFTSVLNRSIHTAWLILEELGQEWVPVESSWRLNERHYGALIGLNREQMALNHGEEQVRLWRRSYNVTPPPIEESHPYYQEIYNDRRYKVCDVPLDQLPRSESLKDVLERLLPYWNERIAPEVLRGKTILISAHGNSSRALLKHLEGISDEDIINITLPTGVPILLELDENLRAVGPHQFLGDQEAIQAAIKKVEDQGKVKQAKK
UniProt Q6QNY0: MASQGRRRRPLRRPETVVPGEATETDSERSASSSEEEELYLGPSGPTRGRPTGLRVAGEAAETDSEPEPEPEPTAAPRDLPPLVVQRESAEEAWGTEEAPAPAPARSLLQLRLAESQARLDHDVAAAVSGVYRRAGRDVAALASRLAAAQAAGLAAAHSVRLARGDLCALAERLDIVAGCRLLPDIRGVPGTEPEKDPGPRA
UniProt Q6UW56: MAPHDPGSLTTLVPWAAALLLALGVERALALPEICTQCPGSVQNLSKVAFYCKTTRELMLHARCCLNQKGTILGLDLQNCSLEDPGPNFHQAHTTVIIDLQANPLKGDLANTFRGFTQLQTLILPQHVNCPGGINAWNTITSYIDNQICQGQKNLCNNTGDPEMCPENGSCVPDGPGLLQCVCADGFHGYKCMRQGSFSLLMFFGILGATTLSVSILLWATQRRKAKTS
UniProt Q9H3K6: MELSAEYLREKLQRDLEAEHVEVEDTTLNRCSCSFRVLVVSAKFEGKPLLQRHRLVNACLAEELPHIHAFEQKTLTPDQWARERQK
UniProt Q9NXR7, whole entry, looked up: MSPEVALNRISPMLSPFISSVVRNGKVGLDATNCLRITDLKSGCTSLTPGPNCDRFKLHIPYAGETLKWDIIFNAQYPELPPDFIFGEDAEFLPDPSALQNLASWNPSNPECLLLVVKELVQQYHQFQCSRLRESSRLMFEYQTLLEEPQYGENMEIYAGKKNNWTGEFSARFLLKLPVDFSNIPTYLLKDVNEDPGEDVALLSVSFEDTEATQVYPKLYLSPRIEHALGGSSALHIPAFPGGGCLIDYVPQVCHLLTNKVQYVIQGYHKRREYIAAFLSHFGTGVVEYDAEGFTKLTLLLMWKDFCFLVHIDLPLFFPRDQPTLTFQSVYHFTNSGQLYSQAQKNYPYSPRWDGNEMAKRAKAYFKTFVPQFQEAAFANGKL
UniProt Q8TDN6: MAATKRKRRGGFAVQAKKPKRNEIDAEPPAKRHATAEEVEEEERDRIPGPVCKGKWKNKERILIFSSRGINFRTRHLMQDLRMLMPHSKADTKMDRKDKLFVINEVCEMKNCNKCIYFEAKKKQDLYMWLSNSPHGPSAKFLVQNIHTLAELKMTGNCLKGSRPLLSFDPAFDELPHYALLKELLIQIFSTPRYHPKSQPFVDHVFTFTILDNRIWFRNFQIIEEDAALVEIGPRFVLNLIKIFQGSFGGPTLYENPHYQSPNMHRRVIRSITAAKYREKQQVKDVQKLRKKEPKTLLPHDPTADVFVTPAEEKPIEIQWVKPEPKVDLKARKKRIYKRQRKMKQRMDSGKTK
UniProt O95999: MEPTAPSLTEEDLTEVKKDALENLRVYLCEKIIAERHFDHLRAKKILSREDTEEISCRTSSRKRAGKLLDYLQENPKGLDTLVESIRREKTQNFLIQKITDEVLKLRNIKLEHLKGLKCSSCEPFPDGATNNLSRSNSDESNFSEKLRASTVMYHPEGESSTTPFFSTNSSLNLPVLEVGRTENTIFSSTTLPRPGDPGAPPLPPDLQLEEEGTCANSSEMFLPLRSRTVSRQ
UniProt Q5VW32: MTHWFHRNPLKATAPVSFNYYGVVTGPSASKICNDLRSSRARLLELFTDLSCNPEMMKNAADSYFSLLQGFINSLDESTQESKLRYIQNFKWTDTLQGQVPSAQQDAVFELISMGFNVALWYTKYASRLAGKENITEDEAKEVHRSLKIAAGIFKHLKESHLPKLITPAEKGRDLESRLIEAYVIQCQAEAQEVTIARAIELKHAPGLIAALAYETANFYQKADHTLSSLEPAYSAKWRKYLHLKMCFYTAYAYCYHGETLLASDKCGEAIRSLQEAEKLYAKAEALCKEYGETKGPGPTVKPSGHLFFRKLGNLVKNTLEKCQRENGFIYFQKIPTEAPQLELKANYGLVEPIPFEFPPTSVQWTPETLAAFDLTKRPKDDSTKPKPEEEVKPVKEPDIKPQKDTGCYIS
UniProt Q9BXH1: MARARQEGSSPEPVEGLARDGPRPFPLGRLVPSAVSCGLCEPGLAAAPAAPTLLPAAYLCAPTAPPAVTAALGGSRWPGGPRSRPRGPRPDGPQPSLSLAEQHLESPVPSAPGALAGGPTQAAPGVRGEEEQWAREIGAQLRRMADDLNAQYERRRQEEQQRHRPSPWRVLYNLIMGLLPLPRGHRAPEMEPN
UniProt Q9HB09: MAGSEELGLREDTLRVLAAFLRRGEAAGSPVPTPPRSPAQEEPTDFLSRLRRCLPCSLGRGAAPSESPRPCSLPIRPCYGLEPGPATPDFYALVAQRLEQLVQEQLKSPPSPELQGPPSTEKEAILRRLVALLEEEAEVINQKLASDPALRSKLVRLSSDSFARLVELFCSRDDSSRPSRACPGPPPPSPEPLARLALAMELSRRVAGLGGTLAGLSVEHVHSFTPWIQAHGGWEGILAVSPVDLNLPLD
UniProt O75934: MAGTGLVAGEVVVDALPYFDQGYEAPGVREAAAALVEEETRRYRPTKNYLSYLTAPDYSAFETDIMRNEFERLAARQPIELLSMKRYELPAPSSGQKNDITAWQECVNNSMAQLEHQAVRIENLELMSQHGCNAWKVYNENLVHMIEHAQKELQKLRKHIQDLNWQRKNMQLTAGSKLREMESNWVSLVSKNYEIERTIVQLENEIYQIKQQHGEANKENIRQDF
UniProt Q16611: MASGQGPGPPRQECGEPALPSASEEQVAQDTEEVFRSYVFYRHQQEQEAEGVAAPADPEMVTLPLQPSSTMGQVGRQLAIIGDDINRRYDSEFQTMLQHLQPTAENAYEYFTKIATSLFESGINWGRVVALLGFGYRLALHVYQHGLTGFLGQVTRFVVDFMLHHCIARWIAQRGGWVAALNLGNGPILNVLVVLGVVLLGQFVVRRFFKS
UniProt P55957: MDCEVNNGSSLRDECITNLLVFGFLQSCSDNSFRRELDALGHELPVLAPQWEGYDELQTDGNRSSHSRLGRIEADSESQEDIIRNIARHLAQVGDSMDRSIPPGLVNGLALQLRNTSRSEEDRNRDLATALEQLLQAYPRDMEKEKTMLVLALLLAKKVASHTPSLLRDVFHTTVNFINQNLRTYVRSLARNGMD
UniProt O95816: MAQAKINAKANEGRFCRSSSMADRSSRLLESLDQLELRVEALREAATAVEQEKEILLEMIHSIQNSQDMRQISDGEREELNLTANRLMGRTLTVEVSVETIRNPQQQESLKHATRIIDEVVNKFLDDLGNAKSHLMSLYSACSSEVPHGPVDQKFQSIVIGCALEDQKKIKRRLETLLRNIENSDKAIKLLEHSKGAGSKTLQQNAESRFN
UniProt Q9UHQ4: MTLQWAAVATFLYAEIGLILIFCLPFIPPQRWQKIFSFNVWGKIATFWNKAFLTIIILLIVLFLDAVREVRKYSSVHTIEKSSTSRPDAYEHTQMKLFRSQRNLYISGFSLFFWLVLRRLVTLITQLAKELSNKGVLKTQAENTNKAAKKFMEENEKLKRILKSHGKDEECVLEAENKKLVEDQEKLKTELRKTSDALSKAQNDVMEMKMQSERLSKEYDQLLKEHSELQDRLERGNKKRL
UniProt Q67FW5: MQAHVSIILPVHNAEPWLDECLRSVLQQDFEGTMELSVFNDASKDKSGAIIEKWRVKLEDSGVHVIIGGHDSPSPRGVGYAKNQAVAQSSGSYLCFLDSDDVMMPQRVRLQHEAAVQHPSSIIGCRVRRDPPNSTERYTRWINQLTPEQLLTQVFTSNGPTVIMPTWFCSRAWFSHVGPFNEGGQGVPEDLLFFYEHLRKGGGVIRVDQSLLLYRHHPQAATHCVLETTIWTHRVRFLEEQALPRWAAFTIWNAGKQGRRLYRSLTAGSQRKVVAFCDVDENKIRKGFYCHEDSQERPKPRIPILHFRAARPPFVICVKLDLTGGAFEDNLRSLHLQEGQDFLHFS

compound: FC(F)(F)c1ccc(/C=C/c2nc(COc3ccc(CCCCn4ccnn4)cc3)co2)cc1 [mubritinib]; assay: log2 fold change, soluble protein after heating vs DMSO (PISA); higher = thermal stabilisation; K562 cells, 10 uM, 30 min; active = over 0.2 and 3.5 SD of the protein, either way, in both replicates (recomputed)
Summary of the method: (§1)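 Quantification of soluble protein used TMTpro 16plex LC-MS/MS, with channel sums equalised. Samples were the supernatant after 21,000xg for 90 min of pooled aliquots from K562 cells (2×10^6 cells/mL) treated with 10 μM compound for 30 min, heated for 3 min over 48°C-58°C, and extracted in PBS with 0.5% NP-40 at 4°C. Values, from duplicates, describe thermal stability against control samples on a log2 fold-change scale.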

For ATR (UniProt Q13535), which log2 fold change is on record?
The log2 fold change was inactive: -0.013.

BRD3 (UniProt Q15059) was tested. Which log2 fold change did it give?
Its log2 fold change is inactive: 0.047.

How did the log2 fold change turn out when B2M (UniProt P61769) was run?
Its log2 fold change is inactive: -0.054.

How did the log2 fold change turn out when BAG4 (UniProt O95429) was run?
Its log2 fold change is inactive: -0.001.

For ATRIP (UniProt Q8WXE1), which log2 fold change is on record?
Its log2 fold change is inactive: 0.033.

For BAG1 (UniProt Q99933), which log2 fold change is on record?
The log2 fold change was inactive: -0.035.

For BLOC1S4 (UniProt Q9NUP1), which log2 fold change is on record?
The log2 fold change was inactive: -0.018.

BAX isoform 2 (UniProt Q07812) was tested. Which log2 fold change did it give?
The log2 fold change was inactive: 0.038.

ATRN (UniProt O75882) was tested. Which log2 fold change did it give?
The log2 fold change was inactive: -0.027.

Which log2 fold change does the source give for BCAP31 isoform 2 (UniProt P51572) here?
Its log2 fold change is inactive: 0.005.

With BLVRA (UniProt P53004) as the target, how does the log2 fold change read?
The log2 fold change was inactive: -0.016.

Which log2 fold change does the source give for BPGM (UniProt P07738) here?
Its log2 fold change is inactive: 0.064.

BLOC1S3 (UniProt Q6QNY0) was tested. Which log2 fold change did it give?
The log2 fold change was inactive: -0.027.

ATRAID isoform 3 (UniProt Q6UW56) was tested. Which log2 fold change did it give?
The log2 fold change was inactive: -0.074.

Which log2 fold change does the source give for ATXN2L (UniProt Q8WWM7) here?
The log2 fold change was inactive: 0.025.

Which log2 fold change does the source give for BOLA2 (UniProt Q9H3K6) here?
The log2 fold change was inactive: 0.027.

How did the log2 fold change turn out when BABAM2 (UniProt Q9NXR7) was run?
The log2 fold change was inactive: 0.021.

BRIX1 (UniProt Q8TDN6) was tested. Which log2 fold change did it give?
The log2 fold change was inactive: -0.206.

Which log2 fold change does the source give for BCL10 (UniProt O95999) here?
The log2 fold change was inactive: 0.033.

How did the log2 fold change turn out when BROX (UniProt Q5VW32) was run?
The log2 fold change was inactive: -0.034.

For BBC3 (UniProt Q9BXH1), which log2 fold change is on record?
Its log2 fold change is inactive: 0.026.

How did the log2 fold change turn out when BCL2L12 (UniProt Q9HB09) was run?
The log2 fold change was inactive: -0.001.

How did the log2 fold change turn out when BCAT2 (UniProt O15382) was run?
Its log2 fold change is inactive: 0.02.

BCKDHB (UniProt P21953) was tested. Which log2 fold change did it give?
The log2 fold change was inactive: 0.09.

With BCAS2 (UniProt O75934) as the target, how does the log2 fold change read?
The log2 fold change was inactive: 0.011.

How did the log2 fold change turn out when BOP1 (UniProt Q14137) was run?
The log2 fold change was inactive: -0.114.

How did the log2 fold change turn out when BAK1 (UniProt Q16611) was run?
Its log2 fold change is inactive: 0.037.

With BID isoform 2 (UniProt P55957) as the target, how does the log2 fold change read?
The log2 fold change was inactive: 0.044.

How did the log2 fold change turn out when BAG2 (UniProt O95816) was run?
Its log2 fold change is inactive: -0.055.

Which log2 fold change does the source give for BCAP29 isoform 2 (UniProt Q9UHQ4) here?
Its log2 fold change is inactive: 0.02.

Which log2 fold change does the source give for B3GNTL1 (UniProt Q67FW5) here?
The log2 fold change was inactive: 0.029.

compound: NC(=O)Nc1cc(-c2cccc(F)c2)sc1C(=O)N[C@H]1CCCNC1; assay: as above
Summary of the method: as §1

With ATR (UniProt Q13535) as the target, how does the log2 fold change read?
Its log2 fold change is inactive: -0.003.

Which log2 fold change does the source give for BRD3 (UniProt Q15059) here?
Its log2 fold change is inactive: 0.008.

BRIP1 (UniProt Q9BX63) was tested. Which log2 fold change did it give?
Its log2 fold change is inactive: 0.139.

Which log2 fold change does the source give for B2M (UniProt P61769) here?
Its log2 fold change is inactive: -0.024.

For BAG4 (UniProt O95429), which log2 fold change is on record?
The log2 fold change was inactive: 0.016.

With ATRIP (UniProt Q8WXE1) as the target, how does the log2 fold change read?
Its log2 fold change is inactive: -0.017.

BAG1 (UniProt Q99933) was tested. Which log2 fold change did it give?
Its log2 fold change is inactive: 0.038.

Which log2 fold change does the source give for BLOC1S4 (UniProt Q9NUP1) here?
The log2 fold change was inactive: -0.052.

For BAX isoform 2 (UniProt Q07812), which log2 fold change is on record?
Its log2 fold change is inactive: -0.005.

ATRN (UniProt O75882) was tested. Which log2 fold change did it give?
The log2 fold change was inactive: -0.007.

Which log2 fold change does the source give for BCAP31 isoform 2 (UniProt P51572) here?
The log2 fold change was inactive: 0.048.

With BLVRA (UniProt P53004) as the target, how does the log2 fold change read?
The log2 fold change was inactive: 0.

BPGM (UniProt P07738) was tested. Which log2 fold change did it give?
The log2 fold change was inactive: -0.008.

For BLOC1S3 (UniProt Q6QNY0), which log2 fold change is on record?
The log2 fold change was inactive: 0.057.

With ATRAID isoform 3 (UniProt Q6UW56) as the target, how does the log2 fold change read?
Its log2 fold change is inactive: 0.009.

For ATXN2L (UniProt Q8WWM7), which log2 fold change is on record?
Its log2 fold change is inactive: 0.035.

Which log2 fold change does the source give for BOLA2 (UniProt Q9H3K6) here?
The log2 fold change was inactive: -0.007.

BABAM2 (UniProt Q9NXR7) was tested. Which log2 fold change did it give?
Its log2 fold change is inactive: -0.01.

How did the log2 fold change turn out when BRIX1 (UniProt Q8TDN6) was run?
The log2 fold change was inactive: 0.056.

For BCL10 (UniProt O95999), which log2 fold change is on record?
The log2 fold change was inactive: 0.005.

With BROX (UniProt Q5VW32) as the target, how does the log2 fold change read?
Its log2 fold change is inactive: -0.021.

With BCAT2 (UniProt O15382) as the target, how does the log2 fold change read?
Its log2 fold change is inactive: 0.

Which log2 fold change does the source give for BCKDHB (UniProt P21953) here?
Its log2 fold change is inactive: 0.108.

How did the log2 fold change turn out when BCAS2 (UniProt O75934) was run?
The log2 fold change was inactive: 0.

Which log2 fold change does the source give for BOP1 (UniProt Q14137) here?
Its log2 fold change is inactive: 0.002.

Which log2 fold change does the source give for BAK1 (UniProt Q16611) here?
Its log2 fold change is inactive: 0.044.

BID isoform 2 (UniProt P55957) was tested. Which log2 fold change did it give?
Its log2 fold change is inactive: 0.032.

Which log2 fold change does the source give for BAG2 (UniProt O95816) here?
The log2 fold change was inactive: 0.137.

Which log2 fold change does the source give for BCAP29 isoform 2 (UniProt Q9UHQ4) here?
The log2 fold change was inactive: 0.001.

With B3GNTL1 (UniProt Q67FW5) as the target, how does the log2 fold change read?
The log2 fold change was inactive: -0.071.
